According to the supplement of paper PMC4683952:
Structures can show the parent of a compound that is named as a salt. This is one part of the list. No stated cut-off is given here; in the data, active = 2.5 or more and inactive = the rest. Single values are uncertain here, since repeats match poorly.

tested on: Lgr5 (MarsCy1-Lgr5-EGFP, U2OS); assay: cell-surface Lgr5 expression (SCi1 fluorescence, background-subtracted) relative to WT control (fold of WT control); higher = more Lgr5 at the plasma membrane; details: U2OS MarsCy1-Lgr5-EGFP stable; treatment time: overnight; library: Prestwick; 20 µM

Which “cell-surface Lgr5 expression” value does the source give for `CC(C[N+](C)(C)C)OC(N)=O` (stereo not drawn) [Bethanechol chloride] here?
Its value is inactive: 1.02.

How did the “cell-surface Lgr5 expression” value turn out when `COc1ccc2c(c1)C(=O)N(CCc1ccc(S(=O)(=O)NC(=O)NC3CCCCC3)cc1)C(=O)C2(C)C` [Gliquidone] was run?
The value was inactive: 1.9.

For `CN(C)CCN(Cc1ccc(Cl)cc1)c1ccccn1` [Chloropyramine hydrochloride], which “cell-surface Lgr5 expression” value is on record?
Its value is inactive: 2.44.

For `COc1ccc([C@@H]2Sc3ccccc3N(CCN(C)C)C(=O)[C@@H]2OC(C)=O)cc1` [Diltiazem hydrochloride], which “cell-surface Lgr5 expression” value is on record?
The value was inactive: 1.04.

With `Cc1cn([C@H]2C[C@H](N=[N+]=[N-])[C@@H](CO)O2)c(=O)[nH]c1=O` [Zidovudine, AZT] as the molecule, how does the “cell-surface Lgr5 expression” value read?
Its value is inactive: 1.72.

For `CCCNC(C)C(=O)Nc1c(C)csc1C(=O)OC` (stereo not drawn) [Articaine hydrochloride], which “cell-surface Lgr5 expression” value is on record?
Its value is inactive: 1.33.

`NCCc1cc[nH]n1` [Betazole hydrochloride] was tested. Which “cell-surface Lgr5 expression” value did it give?
Its value is inactive: 1.01.

For `Cc1c(NC(C)C)c(=O)n(-c2ccccc2)n1C` [Isopyrin hydrochloride], which “cell-surface Lgr5 expression” value is on record?
The value was inactive: 1.71.

With `Cc1cc(=O)n(-c2ccccc2)n1C` [Antipyrine] as the molecule, how does the “cell-surface Lgr5 expression” value read?
Its value is inactive: 1.15.

`Clc1ccc(COC(Cn2ccnc2)c2ccc(Cl)cc2Cl)c(Cl)c1` (stereo not drawn) [Miconazole] was tested. Which “cell-surface Lgr5 expression” value did it give?
Its value is inactive: 0.911.

`NC12CC3CC(CC(C3)C1)C2` [Adamantamine fumarate] was tested. Which “cell-surface Lgr5 expression” value did it give?
Its value is inactive: 1.28.

`CN1CCN(C2=Nc3cc(Cl)ccc3Nc3ccccc32)CC1` [Clozapine] was tested. Which “cell-surface Lgr5 expression” value did it give?
Its value is inactive: 1.22.

Which “cell-surface Lgr5 expression” value does the source give for `C[C@@H]1NC(=O)NC1=O` [Methylhydantoin-5-(L)] here?
Its value is active: 3.53.

`CO[C@@]1(NC(=O)CSCC#N)C(=O)N2C(C(=O)O)=C(CSc3nnnn3C)CS[C@@H]21` [Cefmetazole sodium salt] was tested. Which “cell-surface Lgr5 expression” value did it give?
The value was inactive: 1.82.

With `C[C@@H]1[C@H](O)[C@@H](C)/C=C/C=C/C=C/C=C/C=C/C=C/C=C/[C@H](O[C@@H]2O[C@H](C)[C@@H](O)[C@H](N)[C@@H]2O)C[C@@H]2O[C@](O)(C[C@@H](O)C[C@@H](O)[C@H](O)CC[C@@H](O)C[C@@H](O)CC(=O)O[C@H]1C)C[C@H](O)[C@H]2C(=O)O` [Amphotericin B] as the molecule, how does the “cell-surface Lgr5 expression” value read?
Its value is inactive: -0.248.

How did the “cell-surface Lgr5 expression” value turn out when `CC(C)NC[C@H](O)COc1ccc(CC(N)=O)cc1` [(S)-(-)-Atenolol] was run?
The value was inactive: 2.15.

How did the “cell-surface Lgr5 expression” value turn out when `CCC(NC(C)C)C(O)c1ccc(O)c(O)c1` (stereo not drawn) [Isoetharine mesylate salt] was run?
The value was active: 2.9.

For `CCC(Cc1c(I)cc(I)c(N)c1I)C(=O)O` (stereo not drawn) [Iopanoic acid], which “cell-surface Lgr5 expression” value is on record?
The value was inactive: 1.13.

How did the “cell-surface Lgr5 expression” value turn out when `CN1CCc2cccc3c2[C@H]1Cc1ccc(O)c(O)c1-3` [R(-) Apomorphine hydrochloride hemihydrate] was run?
The value was inactive: 1.69.

Which “cell-surface Lgr5 expression” value does the source give for `O=c1cc(-c2ccc(O)c(O)c2)oc2cc(O)cc(O)c12` [Luteolin] here?
Its value is inactive: 1.44.

`CC(C)(C(=O)c1cccnc1)c1cccnc1` [Metyrapone] was tested. Which “cell-surface Lgr5 expression” value did it give?
Its value is inactive: 2.23.

How did the “cell-surface Lgr5 expression” value turn out when `CC(=O)N(O)CCCCCNC(=O)CCC(=O)N(O)CCCCCNC(=O)CCC(=O)N(O)CCCCCN` [Deferoxamine mesylate] was run?
The value was inactive: 0.116.

Which “cell-surface Lgr5 expression” value does the source give for `CC(C)/N=c1\cc2n(-c3ccc(Cl)cc3)c3ccccc3nc-2cc1Nc1ccc(Cl)cc1` [Clofazimine] here?
Its value is inactive: 1.07.

With `CCN[C@H]1C[C@H](C)S(=O)(=O)c2sc(S(N)(=O)=O)cc21` [Dorzolamide hydrochloride] as the molecule, how does the “cell-surface Lgr5 expression” value read?
The value was inactive: 1.38.

Which “cell-surface Lgr5 expression” value does the source give for `CC(C)(Sc1cc(C(C)(C)C)c(O)c(C(C)(C)C)c1)Sc1cc(C(C)(C)C)c(O)c(C(C)(C)C)c1` [Probucol] here?
Its value is inactive: 1.39.

For `Cn1ccnc1S` [Methimazole], which “cell-surface Lgr5 expression” value is on record?
Its value is inactive: 1.9.

For `Nc1c(Br)cc(Br)cc1CN[C@H]1CC[C@H](O)CC1` [Ambroxol hydrochloride], which “cell-surface Lgr5 expression” value is on record?
Its value is inactive: 1.5.

How did the “cell-surface Lgr5 expression” value turn out when `COc1cc(OC)c(C(=O)CCCN2CCCC2)c(OC)c1` [Buflomedil hydrochloride] was run?
The value was inactive: 1.94.

With `CC[C@@H](CC[C@@H](C)[C@H]1CC[C@H]2[C@@H]3CCC4C[C@@H](O)CC[C@]4(C)[C@H]3CC[C@]12C)C(C)C` (stereo partly drawn) [Beta-sistosterol] as the molecule, how does the “cell-surface Lgr5 expression” value read?
The value was inactive: 1.22.

For `CCN1C(=O)NC(c2ccccc2)C1=O` (stereo not drawn) [Ethotoin], which “cell-surface Lgr5 expression” value is on record?
Its value is inactive: 1.96.

Which “cell-surface Lgr5 expression” value does the source give for `CN1CCC(=C2c3ccccc3CC(=O)c3sccc32)CC1` [Ketotifen fumarate] here?
Its value is inactive: 1.25.

How did the “cell-surface Lgr5 expression” value turn out when `COc1ccccc1N1CCN(CC(O)COc2cccc3ccccc23)CC1` (stereo not drawn) [Naftopidil dihydrochloride] was run?
The value was inactive: 1.04.

`CN1CCCC(CC2c3ccccc3Sc3ccccc32)C1` (stereo not drawn) [Metixene hydrochloride] was tested. Which “cell-surface Lgr5 expression” value did it give?
The value was inactive: 2.33.

Which “cell-surface Lgr5 expression” value does the source give for `COc1ccc2c(c1)N(C[C@H](C)CN(C)C)c1ccccc1S2` [Methotrimeprazine maleat salt] here?
The value was active: 3.17.

How did the “cell-surface Lgr5 expression” value turn out when `CCCN(CCC)C(=O)C(CCC(=O)O)NC(=O)c1ccccc1` (stereo not drawn) [Proglumide] was run?
The value was inactive: 0.747.

`COc1ccc(-c2ccc(=N)n(CCCC(=O)O)n2)cc1` [Gabazine] was tested. Which “cell-surface Lgr5 expression” value did it give?
Its value is inactive: 2.08.

`CO[C@H]1C[C@H](O[C@H]2[C@H](C)[C@@H](O[C@@H]3O[C@H](C)C[C@H](N(C)C)[C@H]3OC(C)=O)[C@@H](C)C[C@@]3(CO3)C(=O)[C@H](C)[C@@H](OC(C)=O)[C@@H](C)[C@@H](C)OC(=O)[C@@H]2C)O[C@@H](C)[C@@H]1OC(C)=O` [Troleandomycin] was tested. Which “cell-surface Lgr5 expression” value did it give?
The value was inactive: 1.57.

For `Cc1cc(C(=O)NNCc2ccccc2)no1` [Isocarboxazid], which “cell-surface Lgr5 expression” value is on record?
The value was inactive: 1.87.

With `CN(C)CC/C=C1\c2ccccc2CSc2ccccc21` [Dosulepin hydrochloride] as the molecule, how does the “cell-surface Lgr5 expression” value read?
The value was inactive: 2.32.

With `CC(C)(Oc1ccc(Cl)cc1)C(=O)O` [Clofibric acid] as the molecule, how does the “cell-surface Lgr5 expression” value read?
Its value is inactive: 1.74.

With `Cn1c(=O)c2[nH]cnc2n(C)c1=O` [Aminophylline] as the molecule, how does the “cell-surface Lgr5 expression” value read?
The value was inactive: 2.

Which “cell-surface Lgr5 expression” value does the source give for `CN(C)CCC=C1c2ccccc2CCc2ccccc21` [Amitryptiline hydrochloride] here?
The value was inactive: 0.874.

With `Cc1[nH]c(=O)c(C#N)cc1-c1ccncc1` [Milrinone] as the molecule, how does the “cell-surface Lgr5 expression” value read?
The value was inactive: 0.398.

For `COc1cc(/C=C/C(=O)N2CCC=CC2=O)cc(OC)c1OC` [Piperlongumine], which “cell-surface Lgr5 expression” value is on record?
Its value is active: 3.21.

How did the “cell-surface Lgr5 expression” value turn out when `CN1C(C(=O)Nc2ccccn2)=C(O)c2sccc2S1(=O)=O` [Tenoxicam] was run?
The value was active: 2.73.

`Cc1ncc([N+](=O)[O-])n1CC(O)CCl` (stereo not drawn) [Ornidazole] was tested. Which “cell-surface Lgr5 expression” value did it give?
The value was inactive: 1.48.

Which “cell-surface Lgr5 expression” value does the source give for `C[C@]12CC[C@H]3C(=CCc4cc(O)ccc43)[C@@H]1CCC2=O` [Equilin] here?
The value was inactive: 1.91.

With `C=C[C@H]1CN2CC[C@H]1C[C@@H]2[C@@H](O)c1ccnc2ccc(OC)cc12` [Quinidine hydrochloride monohydrate] as the molecule, how does the “cell-surface Lgr5 expression” value read?
Its value is inactive: 1.59.

Which “cell-surface Lgr5 expression” value does the source give for `O=C(CCCN1CCC(O)(c2ccc(Br)cc2)CC1)c1ccc(F)cc1` [Bromperidol] here?
The value was inactive: 2.23.

With `CO[C@@]1(NC(=O)Cc2cccs2)C(=O)N2C(C(=O)O)=C(COC(N)=O)CS[C@@H]21` [Cefoxitin sodium salt] as the molecule, how does the “cell-surface Lgr5 expression” value read?
Its value is inactive: 1.59.

With `CC(=O)c1ccc2c(c1)N(CCCN1CCC(CCO)CC1)c1ccccc1S2` [Piperacetazine] as the molecule, how does the “cell-surface Lgr5 expression” value read?
The value was inactive: 1.02.

How did the “cell-surface Lgr5 expression” value turn out when `CCCCC(CC)CN1CN(CC(CC)CCCC)CC(C)(N)C1` (stereo not drawn) [Hexetidine] was run?
Its value is inactive: 2.06.

With `CCN(CC)CCOC(=O)C(c1ccccc1)C1CCCCC1` (stereo not drawn) [Drofenine hydrochloride] as the molecule, how does the “cell-surface Lgr5 expression” value read?
Its value is active: 2.74.

How did the “cell-surface Lgr5 expression” value turn out when `COc1cc(Cc2cnc(N)nc2N)cc(OC)c1OC` [Trimethoprim] was run?
The value was active: 2.5.

How did the “cell-surface Lgr5 expression” value turn out when `CCCCOC(=O)c1ccc(N)cc1` [Butamben] was run?
Its value is inactive: 1.7.

With `O=C1NCN(c2ccccc2)C12CCN(CCCC(c1ccc(F)cc1)c1ccc(F)cc1)CC2` [Fluspirilen] as the molecule, how does the “cell-surface Lgr5 expression” value read?
Its value is inactive: 1.68.

With `CC(C)(C)C(=O)OCOC(=O)[C@@H]1N2C(=O)[C@@H](NC(=O)[C@H](N)c3ccccc3)[C@H]2SC1(C)C` [Pivampicillin] as the molecule, how does the “cell-surface Lgr5 expression” value read?
Its value is inactive: 0.643.

Which “cell-surface Lgr5 expression” value does the source give for `N=C(N)NC(=O)c1nc(Cl)c(N)nc1N` [Amiloride hydrochloride dihydrate] here?
Its value is inactive: 1.83.

For `NS(=O)(=O)c1cc(C(=O)O)c(NCc2ccco2)cc1Cl` [Furosemide], which “cell-surface Lgr5 expression” value is on record?
Its value is inactive: 1.95.

Which “cell-surface Lgr5 expression” value does the source give for `Cc1cc(C2CCCCC2)n(O)c(=O)c1` [Ciclopirox ethanolamine] here?
The value was inactive: 2.17.

Which “cell-surface Lgr5 expression” value does the source give for `NS(=O)(=O)c1cc2c(cc1Cl)N=CNS2(=O)=O` [Chlorothiazide] here?
The value was inactive: 1.51.

For `CN[C@H](CC(C)C)C(=O)N[C@H]1C(=O)N[C@@H](CC(N)=O)C(=O)N[C@H]2C(=O)N[C@H]3C(=O)N[C@H](C(=O)N[C@H](C(=O)O)c4cc(O)cc(O)c4-c4cc3ccc4O)[C@H](O)c3ccc(c(Cl)c3)Oc3cc2cc(c3O[C@@H]2O[C@H](CO)[C@@H](O)[C@H](O)[C@H]2O[C@H]2C[C@](C)(N)[C@H](O)[C@H](C)O2)Oc2ccc(cc2Cl)[C@H]1O` [Vancomycin hydrochloride], which “cell-surface Lgr5 expression” value is on record?
Its value is inactive: 1.8.

`NC(=O)c1ncn([C@@H]2O[C@H](CO)[C@@H](O)[C@H]2O)n1` [Ribavirin] was tested. Which “cell-surface Lgr5 expression” value did it give?
The value was inactive: 1.41.

How did the “cell-surface Lgr5 expression” value turn out when `CCOC(=O)[C@H](CCc1ccccc1)N[C@@H](C)C(=O)N1[C@H](C(=O)O)C[C@@H]2CCC[C@@H]21` [Ramipril] was run?
Its value is inactive: 1.06.

With `CCOc1ccc2c(c1)C(C)=CC(C)(C)N2` [Ethoxyquin] as the molecule, how does the “cell-surface Lgr5 expression” value read?
The value was inactive: 2.07.

Which “cell-surface Lgr5 expression” value does the source give for `CC(C)COCC(CN(Cc1ccccc1)c1ccccc1)N1CCCC1` (stereo not drawn) [Bepridil hydrochloride] here?
Its value is inactive: 1.91.

Which “cell-surface Lgr5 expression” value does the source give for `CCCCNC(=O)NS(=O)(=O)c1ccc(C)cc1` [Tolbutamide] here?
Its value is inactive: 0.785.

Which “cell-surface Lgr5 expression” value does the source give for `O=C(O)c1cc(-c2ccc(F)cc2F)ccc1O` [Diflunisal] here?
The value was inactive: 1.01.
